Values from PubChem BioAssay AID1053208 (Peter MacCallum Cancer Centre, 2014)

Screen: 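Find knock-downs that sensitise mouse osteosarcoma cells to doxorubicin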 (primary screen)
Cells: mouse osteosarcoma cells, early-passage culture from an engineered mouse model of fibroblastic bone tumour
Knock-down reagent: siRNA pool against mouse genes, 40 nM
Timing: about 120 h (48 h before drug, then 72 h with drug)
Challenge: doxorubicin 100 nM for 72 h, roughly 30-40% inhibitory dose
Measurement: 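Luminescent ATP signal taken as viability with or without 100 nM doxorubicin for 72 h; mean of two wells set against non-targeting siRNA and turned into robust z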
Reading the numbers: viability z-score with doxorubicin and doxorubicin viability vs non-targeting: higher = more viable cells under doxorubicin; viability z-score without drug: higher = more viable cells with knock-down alone; z-score of drug to no-drug ratio: higher = less drug sensitisation by knock-down
Active means: 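a pool counts as active when its viability z-score with doxorubicin is -2 or below and its z-score without drug lies between -2 and 2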
The deposit covers about 17,000 reagents; shown is a part drawn at random. 788 of them (4.7%) count as active. 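Calls rest on z-score classes alone; an extra cut-off of viability at most 70% of control was not applied to them.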

no.	gene knocked down	combined z-score class	viability z-score with doxorubicin	viability z-score without drug	z-score of drug to no-drug ratio	doxorubicin viability vs non-targeting	Outcome
1	Rnase1	no change with or without drug	-1.35	-1.18	-0.56	0.82	inactive
2	Cyp11b2	no change with or without drug	-0.56	-0.67	0	0.89	inactive
3	Ube2dnl1	no change with or without drug	-1.24	-0.34	-1.01	0.83	inactive
4	H2bc6	no change with or without drug	-0.45	0.17	-0.45	0.9	inactive
5	Mcm7	low cell count without drug only	-1.8	-2.87	0.22	0.78	inactive
6	Ugdh	no change with or without drug	-1.8	-0.84	-1.24	0.78	inactive
7	Pmaip1	no change with or without drug	0	0.17	0	0.94	inactive
8	Gpr85	no change with or without drug	-0.79	0	-0.67	0.87	inactive
9	Or56b2	no change with or without drug	0	-1.01	0.9	0.94	inactive
10	Naip6	no change with or without drug	1.8	1.18	1.12	1.1	inactive
11	Or4c114	no change with or without drug	0.9	-0.51	1.46	1.02	inactive
12	Tnp2	no change with or without drug	0.45	1.18	-0.22	0.98	inactive
13	Gm9517	no change with or without drug	-0.22	-0.17	0	0.92	inactive
14	Grin1	no change with or without drug	-0.9	-0.34	-0.67	0.86	inactive
15	Arl2	no change with or without drug	-1.01	0.17	-1.01	0.85	inactive
16	Krt82	no change with or without drug	-1.8	-0.51	-1.46	0.78	inactive
17	Rab6a	no change with or without drug	-0.79	-0.17	-0.56	0.87	inactive
18	Fancd2	no change with or without drug	-0.67	1.52	-1.46	0.88	inactive
19	Cnpy1	no change with or without drug	-0.11	0	0	0.93	inactive
20	Pcdh7	no change with or without drug	0.79	0.51	0.56	1.01	inactive
21	Mrgpra1	no change with or without drug	0	0.51	-0.22	0.94	inactive
22	Fgfr1	no change with or without drug	-1.57	-1.18	-0.79	0.8	inactive
23	Esr2	high cell count without drug only	0.56	2.02	-0.56	0.99	inactive
24	Ppip5k1	no change with or without drug	0.67	0.67	0.34	1	inactive
25	Il2ra	no change with or without drug	-0.79	-0.17	-0.56	0.87	inactive
26	a	low cell count with doxorubicin only	-2.02	-1.18	-1.35	0.76	active
27	Rrad	no change with or without drug	0	-0.17	0.22	0.94	inactive
28	Mettl24	no change with or without drug	-0.67	0.34	-0.79	0.88	inactive
29	Dll3	no change with or without drug	1.46	-0.17	1.8	1.07	inactive
30	Asb2	no change with or without drug	-0.56	-0.17	-0.34	0.89	inactive
31	Alkbh6	no change with or without drug	-1.57	0.51	-1.8	0.8	inactive
32	Cpeb1	no change with or without drug	1.8	0.84	1.35	1.1	inactive
33	Clrn3	no change with or without drug	0	0.17	0	0.94	inactive
34	Prpf8	no change with or without drug	-0.45	-0.84	0.22	0.9	inactive

Targets above whose gene name begins with A or a (4):
gene knocked down	combined z-score class	viability z-score with doxorubicin	viability z-score without drug	z-score of drug to no-drug ratio	doxorubicin viability vs non-targeting	Outcome
Arl2	no change with or without drug	-1.01	0.17	-1.01	0.85	inactive
a	low cell count with doxorubicin only	-2.02	-1.18	-1.35	0.76	active
Asb2	no change with or without drug	-0.56	-0.17	-0.34	0.89	inactive
Alkbh6	no change with or without drug	-1.57	0.51	-1.8	0.8	inactive
